Test results published in US20140170241A1.
Results are given in words; binding and its absence hold for the method and conditions named. For part of these data: Binding seen in cells or lysates may run through a third protein. Some binding calls cover weakened binding; strength is not graded here. For part of these data: Sequences can lack the tags named with a protein.

T1: gel-purified GST-tagged Mitofilin (expressed in E. coli) (UniProt Q16891)
T1 sequence (looked up): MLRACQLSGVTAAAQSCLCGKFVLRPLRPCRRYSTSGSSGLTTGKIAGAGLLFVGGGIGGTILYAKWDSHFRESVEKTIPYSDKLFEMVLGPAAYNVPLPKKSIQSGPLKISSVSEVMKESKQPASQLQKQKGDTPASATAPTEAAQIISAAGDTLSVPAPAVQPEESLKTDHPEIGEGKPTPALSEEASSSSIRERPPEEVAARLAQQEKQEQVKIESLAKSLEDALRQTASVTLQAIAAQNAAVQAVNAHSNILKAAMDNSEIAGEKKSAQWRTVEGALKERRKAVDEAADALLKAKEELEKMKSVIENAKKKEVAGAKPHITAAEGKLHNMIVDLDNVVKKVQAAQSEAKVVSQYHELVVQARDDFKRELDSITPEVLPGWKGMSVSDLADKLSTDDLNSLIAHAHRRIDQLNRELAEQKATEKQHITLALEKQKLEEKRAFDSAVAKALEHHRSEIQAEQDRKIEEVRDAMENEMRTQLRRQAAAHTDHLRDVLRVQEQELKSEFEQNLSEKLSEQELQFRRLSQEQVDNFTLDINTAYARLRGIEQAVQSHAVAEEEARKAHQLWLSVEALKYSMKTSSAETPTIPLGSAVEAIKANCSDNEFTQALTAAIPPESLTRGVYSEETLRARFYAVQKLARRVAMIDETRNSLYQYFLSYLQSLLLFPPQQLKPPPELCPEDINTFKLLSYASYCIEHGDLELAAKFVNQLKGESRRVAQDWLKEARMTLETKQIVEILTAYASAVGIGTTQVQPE

T2: endogenous Mitofilin (human) (UniProt Q16891)
T2 sequence (looked up): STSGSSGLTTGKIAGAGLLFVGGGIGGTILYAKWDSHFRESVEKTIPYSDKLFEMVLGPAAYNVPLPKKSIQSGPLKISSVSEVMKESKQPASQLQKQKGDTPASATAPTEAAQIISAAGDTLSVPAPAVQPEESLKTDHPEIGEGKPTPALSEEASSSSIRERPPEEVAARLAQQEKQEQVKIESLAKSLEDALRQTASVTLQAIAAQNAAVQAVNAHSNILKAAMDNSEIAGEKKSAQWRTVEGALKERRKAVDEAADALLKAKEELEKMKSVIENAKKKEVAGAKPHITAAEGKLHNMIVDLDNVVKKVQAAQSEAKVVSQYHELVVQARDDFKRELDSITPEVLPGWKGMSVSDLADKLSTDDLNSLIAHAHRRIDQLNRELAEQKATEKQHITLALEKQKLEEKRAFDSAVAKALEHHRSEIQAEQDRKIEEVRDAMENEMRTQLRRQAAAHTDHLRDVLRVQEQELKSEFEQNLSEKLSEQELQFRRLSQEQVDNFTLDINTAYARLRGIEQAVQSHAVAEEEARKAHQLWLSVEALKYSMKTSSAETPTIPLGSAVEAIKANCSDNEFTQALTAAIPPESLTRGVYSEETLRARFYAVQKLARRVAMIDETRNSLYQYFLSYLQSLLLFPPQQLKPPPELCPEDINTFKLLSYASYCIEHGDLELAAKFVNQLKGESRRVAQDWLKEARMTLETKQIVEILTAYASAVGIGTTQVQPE


Legend:
[1] = target: T1, gel-purified GST-tagged Mitofilin (expressed in E. coli); test: S-tag pull-down of purified proteins, Western blot
[2] = target: T2, endogenous Mitofilin (human); test: introduction of Example 1, summing up its results
[3] = target: T2, endogenous Mitofilin (human); test: restates the pull-down and immunoprecipitation of FIG. 7
[4] = target: T2, endogenous Mitofilin (human); test: immunoprecipitation from RKO and MCF7 cell lysates, Western blot
[5] = target: T2, endogenous Mitofilin (human); test: immunoprecipitation with anti-CHCM1/CHCHD6 antibody, Western blot

binding [1] | binding [2] | binding [3] | binding [4] | binding [5] | Binder
binds | – | – | – | – | S-tagged CHCM1/CHCHD6 deletion variant lacking the N-terminal 100 amino acids (protein, not shown: small tags and cut ends) LFQVAKREREAATKHSKASLPTGEGSISHEEQKSVRLARELESREAELRRRDTFYKEQLERIERKNAEMYKLSSEQFHEAASKMESTIKPRRVEPVCSGLQAQILHCYRDRPHEVLLCSDLVKAYQRCVSAAHKG
binds | – | – | – | – | S-tagged CHCM1/CHCHD6 deletion variant lacking the N-terminal 50 amino acids (protein, not shown: small tags and cut ends) STFGLQDGNLRAPHKESTLPRSGSSGGQQPSGMKEGVKRYEQEHAAIQDKLFQVAKREREAATKHSKASLPTGEGSISHEEQKSVRLARELESREAELRRRDTFYKEQLERIERKNAEMYKLSSEQFHEAASKMESTIKPRRVEPVCSGLQAQILHCYRDRPHEVLLCSDLVKAYQRCVSAAHKG
– | binds | binds | binds | binds | endogenous CHCM1/CHCHD6 (protein) GSTESSEGRRVSFGVDEEERVRVLQGVRLSENVVNRMKEPSSPPPAPTSSTFGLQDGNLRAPHKESTLPRSGSSGGQQPSGMKEGVKRYEQEHAAIQDKLFQVAKREREAATKHSKASLPTGEGSISHEEQKSVRLARELESREAELRRRDTFYKEQLERIERKNAEMYKLSSEQFHEAASKMESTIKPRRVEPVCSGLQAQILHCYRDRPHEVLLCSDLVKAYQRCVSAAHKG
